Drawing on PubChem BioAssay AID248 (DTP/NCI, 2004), this text covers survivor count and T/C for 24 compounds.

The list is a part of this screen's results and no random one: it gathers tests that were run many times, whatever their T/C, doses with no T/C, and many T/C values between a quarter and a half above the control. Further doses and runs are listed elsewhere. T/C gives the treated animals as a percentage of the vehicle group. Some entries give survivors of the animals treated and no T/C: the source holds a T/C of zero for them, seemingly a mark for toxic or unscored doses. Some doses without a T/C left all or most animals alive at the check, yet need not have been tolerated: survival well below the control is almost never listed, so the zero probably covers shortened survival too. Survivors were counted at the toxicity check, usually on the fifth day, unless a day is given; later deaths do not show. Schedule codes are those of the source, read here as Q, the interval in days (D) or hours (H), X, the number of doses. Some structures stand for samples that the source files as different forms (salt, stereo form or complex); doses refer to the form tested. Brackets with × stand for listed records that agree. For survival time, this PubChem deposit counts one and a half times the control or more as active, and values a quarter to a half above the control carry no call in these data; other NCI protocols may use other cut-offs. Some T/C values carry the count of animals alive at the toxicity check (mostly the fifth day); without a count, all were alive then.

The subject of the experiment is L1210 leukemia ip in BDF1 mice, survival T/C. The experiment can be described thus: NCI In Vivo Anticancer Drug Screen. Data for tumor model L1210 Leukemia (intraperitoneal) in B6D2F1 (BDF1) mice. As to conditions: T/C endpoint: mean survival time, higher T/C = longer survival.
The mark [1] stands for this setting: dose: 40.0 mg/kg/injection, schedule: Q01DX001 (ip), vehicle: saline.
Setting [2] is: dose: 300.0 mg/kg/injection, schedule: Q01DX001 (ip), vehicle: other.
Setting [3] is: dose: 8.0 mg/kg/injection, schedule: Q01DX009 (ip), vehicle: saline.
Setting [4] is: dose: 400.0 mg/kg/injection, schedule: Q01DX009 (ip), vehicle: Klucel (hydroxypropylcellulose) (HPC).
[5] abbreviates: dose: 400.0 mg/kg/injection, schedule: Q04DX003 (ip), vehicle: gum acacia.
The mark [6] stands for this setting: dose: 200.0 mg/kg/injection, schedule: Q04DX003 (ip), vehicle: saline.
[7] abbreviates: dose: 400.0 mg/kg/injection, schedule: Q04DX003 (ip), vehicle: saline.
[8] abbreviates: dose: 80.0 mg/kg/injection, schedule: Q01DX001 (ip), vehicle: saline.
[9] abbreviates: dose: 100.0 mg/kg/injection, schedule: Q01DX001 (ip), vehicle: saline.
Setting [10] is: dose: 200.0 mg/kg/injection, schedule: Q01DX001 (ip), vehicle: saline.
[11] abbreviates: dose: 400.0 mg/kg/injection, schedule: Q01DX001 (ip), vehicle: saline.

As for `CCc1ccc(C2=C(Cl)C(=O)C(c3ccc(CC)cc3)=C(Cl)C2=O)cc1`, the survivor count was 1 of 3 (dose: 200.0 mg/kg/injection, schedule: Q01DX001 (ip), vehicle: carboxymethylcellulose (CMC)) and 0 of 4 (dose: 400.0 mg/kg/injection, schedule: Q01DX001 (ip), vehicle: carboxymethylcellulose (CMC)).

Turning to `C/C=C/CC1(Cc2ccccc2)C(=O)NC(=S)NC1=O`, the survivor count runs as follows: under setting [1], 1 of 6; (dose: 75.0 mg/kg/injection, schedule: Q01DX001 (ip), vehicle: other) 1 of 6; (dose: 75.0 mg/kg/injection, schedule: Q01DX001 (ip), vehicle: saline) 2 of 6; (dose: 150.0 mg/kg/injection, schedule: Q01DX001 (ip), vehicle: other) 0 of 6; (dose: 150.0 mg/kg/injection, schedule: Q01DX001 (ip), vehicle: saline) 0 of 6; under setting [2], 0 of 6. The survivor count (dose: 300.0 mg/kg/injection, schedule: Q01DX001 (ip), vehicle: saline) is recorded as 0 of 6.

Regarding `CN1CCNC(=O)CC1`, the survivor count (dose: 400.0 mg/kg/injection, schedule: Q01DX009 (ip), vehicle: water) is reported as 6 of 6.

For the compound `Nc1nc(N)c2c(Cl)c(CNc3ccc(C(=O)NC(CCCC(=O)O)C(=O)O)cc3)ccc2n1` (stereo not drawn), the T/C reads like this: (dose: 0.5 mg/kg/injection, schedule: Q01DX009 (ip), vehicle: saline) 128 % of control; (dose: 1.0 mg/kg/injection, schedule: Q01DX009 (ip), vehicle: saline) 141 % of control; under setting [3], 149 % of control; (dose: 8.0 mg/kg/injection, schedule: Q04DX003 (ip), vehicle: saline) 126 % of control [5 of 6 alive]; (dose: 16.0 mg/kg/injection, schedule: Q04DX003 (ip), vehicle: saline) 125 % of control; (dose: 32.0 mg/kg/injection, schedule: Q04DX003 (ip), vehicle: saline) 142 % of control. Also, the survivor count reads like this: under setting [3], 6 of 6; (dose: 12.0 mg/kg/injection, schedule: Q01DX009 (ip), vehicle: saline) 6 of 6; (dose: 16.0 mg/kg/injection, schedule: Q01DX009 (ip), vehicle: saline) 6 of 6; (dose: 64.0 mg/kg/injection, schedule: Q04DX003 (ip), vehicle: saline) 4 of 6; (dose: 128.0 mg/kg/injection, schedule: Q04DX003 (ip), vehicle: saline) 4 of 6.

On to `ClCCN(CCCl)c1ccc(CCN2CCCCC2)cc1`, for which the survivor count reads like this: (dose: 50.0 mg/kg/injection, schedule: Q01DX009 (ip), vehicle: Klucel (hydroxypropylcellulose) (HPC)) 3 of 3; (dose: 100.0 mg/kg/injection, schedule: Q01DX009 (ip), vehicle: Klucel (hydroxypropylcellulose) (HPC)) 0 of 3; (dose: 200.0 mg/kg/injection, schedule: Q01DX009 (ip), vehicle: Klucel (hydroxypropylcellulose) (HPC)) 0 of 3.

Turning to `CCC(=S)Nc1ccc(Cl)cc1`, the survivor count (dose: 400.0 mg/kg/injection, schedule: Q04DX003 (ip), vehicle: saline with Tween-80) is 2 of 6.

Regarding `CC[n+]1cccc(C#N)c1`, the survivor count (dose: 300.0 mg/kg/injection, schedule: Q04DX003 (ip), vehicle: saline) is listed as 0 of 6.

Regarding `CC1(C)C(=O)NC2(O)CCCC21` (stereo not drawn), the survivor count was 0 of 6 (dose: 30.0 mg/kg/injection, schedule: Q01DX001 (ip), vehicle: saline); 0 of 6 (dose: 60.0 mg/kg/injection, schedule: Q01DX001 (ip), vehicle: saline); 0 of 6 (dose: 75.0 mg/kg/injection, schedule: Q01DX001 (sc), vehicle: saline); 0 of 6 (dose: 150.0 mg/kg/injection, schedule: Q01DX001 (sc), vehicle: saline); 0 of 6 (dose: 300.0 mg/kg/injection, schedule: Q01DX001 (sc), vehicle: saline).

For `CSC(=NCc1ccccc1)NC1CCCCC1`, the survivor count is 0 of 3 (dose: 100.0 mg/kg/injection, schedule: Q04DX002 (ip), vehicle: Klucel (hydroxypropylcellulose) (HPC)); 0 of 3 (dose: 200.0 mg/kg/injection, schedule: Q04DX002 (ip), vehicle: Klucel (hydroxypropylcellulose) (HPC)); 0 of 3 (dose: 400.0 mg/kg/injection, schedule: Q04DX002 (ip), vehicle: Klucel (hydroxypropylcellulose) (HPC)).

Consider `CCOC(=O)C(=O)Nc1onc(C)c1[N+](=O)[O-]`, for which the survivor count under setting [4] is 3 of 6.

Take `CCCCC1CN2CCc3cc(OC)c(OC)cc3C2CC1=O` (stereo not drawn): the survivor count under setting [4] is reported as 0 of 6.

As for `Cc1cc(O)c(O)c(C(C)(C)C)c1`, the survivor count (dose: 400.0 mg/kg/injection, schedule: Q04DX002 (ip), vehicle: other) was 2 of 3.

On to `COC(=O)c1ccc(=O)oc1`, for which, under setting [5], the survivor count is given as 0 of 6.

Take `CC1(C)N=C(N)N=C(N)N1c1cccc(CCCCC(=O)CCl)c1`: the survivor count (dose: 100.0 mg/kg/injection, schedule: Q04DX003 (ip), vehicle: saline) is on record as 0 of 6; the survivor count under setting [6] is 0 of 6; the survivor count under setting [7] was 0 of 6.

For the compound `CC(=O)Nc1ccc(/C=N\NC(=O)CCCC(=O)N/N=C/c2ccc(NC(C)=O)cc2)cc1`, under “dose: 200.0 mg/kg/injection, schedule: Q01DX009 (ip), vehicle: saline”, the survivor count is 6 of 6.

As to `COc1ccc(OC)c(/C=C/[N+](=O)[O-])c1`, the survivor count runs as follows: (dose: 200.0 mg/kg/injection, schedule: Q04DX003 (ip), vehicle: gum acacia) 3 of 6; under setting [5], 1 of 6.

Turning to `NC(Cc1ccccc1)c1ccccc1` (stereo not drawn) (tested in a mixture with another compound), the survivor count reads like this: under setting [6], 5 of 6; under setting [7], 0 of 6 (2×).

For `CN(C)CC1CC(=O)C(CN(C)C)CC1=O` (stereo not drawn), under setting [8], the survivor count is 1 of 6.

Regarding `CC1(OO)CC(=O)OO1` (stereo not drawn), the survivor count is, setting by setting: under setting [9], 0 of 6; under setting [10], 0 of 6; under setting [11], 0 of 6.

In the case of `CCCOC(=O)CSC#N`, the survivor count is, setting by setting: (dose: 20.0 mg/kg/injection, schedule: Q01DX001 (ip), vehicle: saline) 1 of 4; under setting [1], 1 of 4; under setting [8], 0 of 4; under setting [9], 0 of 4; under setting [10], 0 of 4; under setting [11], 0 of 4.

On to `S=P1(c2ccccc2)Nc2cc(Cl)ccc2S1` (stereo not drawn), for which the survivor count under setting [10] is recorded as 1 of 6 and the survivor count under setting [11] is on record as 0 of 6.

With `COC(=O)C1=C(O)CN(C)C1=O`, the survivor count under setting [10] is 4 of 6; the survivor count (dose: 225.0 mg/kg/injection, schedule: Q01DX009 (ip), vehicle: saline) is reported as 0 of 6; the survivor count under setting [11] is listed as 0 of 6.

Turning to `Cc1ccccc1-n1c(C)cc(=O)c(C(=O)Cl)c1C`, for the setting “dose: 400.0 mg/kg/injection, schedule: Q04DX003 (ip), vehicle: Klucel (hydroxypropylcellulose) (HPC)”, the survivor count was 0 of 6.

As for `CC/C(C)=N/NS(C)(=O)=O`, under setting [2], the survivor count is 0 of 6.
